According to patent publication US20210340270A1 (Amgen, published 2021):
These are yes or no findings as the source states them, for the method shown. Some results given as binding are weak or reduced against the parent protein; the word gives no strength.

Sequences of proteins named here, by UniProt entry; tags and fusion partners are left off. A change or cut given only in a name is not applied to a line headed by its entry.
UniProt P78504: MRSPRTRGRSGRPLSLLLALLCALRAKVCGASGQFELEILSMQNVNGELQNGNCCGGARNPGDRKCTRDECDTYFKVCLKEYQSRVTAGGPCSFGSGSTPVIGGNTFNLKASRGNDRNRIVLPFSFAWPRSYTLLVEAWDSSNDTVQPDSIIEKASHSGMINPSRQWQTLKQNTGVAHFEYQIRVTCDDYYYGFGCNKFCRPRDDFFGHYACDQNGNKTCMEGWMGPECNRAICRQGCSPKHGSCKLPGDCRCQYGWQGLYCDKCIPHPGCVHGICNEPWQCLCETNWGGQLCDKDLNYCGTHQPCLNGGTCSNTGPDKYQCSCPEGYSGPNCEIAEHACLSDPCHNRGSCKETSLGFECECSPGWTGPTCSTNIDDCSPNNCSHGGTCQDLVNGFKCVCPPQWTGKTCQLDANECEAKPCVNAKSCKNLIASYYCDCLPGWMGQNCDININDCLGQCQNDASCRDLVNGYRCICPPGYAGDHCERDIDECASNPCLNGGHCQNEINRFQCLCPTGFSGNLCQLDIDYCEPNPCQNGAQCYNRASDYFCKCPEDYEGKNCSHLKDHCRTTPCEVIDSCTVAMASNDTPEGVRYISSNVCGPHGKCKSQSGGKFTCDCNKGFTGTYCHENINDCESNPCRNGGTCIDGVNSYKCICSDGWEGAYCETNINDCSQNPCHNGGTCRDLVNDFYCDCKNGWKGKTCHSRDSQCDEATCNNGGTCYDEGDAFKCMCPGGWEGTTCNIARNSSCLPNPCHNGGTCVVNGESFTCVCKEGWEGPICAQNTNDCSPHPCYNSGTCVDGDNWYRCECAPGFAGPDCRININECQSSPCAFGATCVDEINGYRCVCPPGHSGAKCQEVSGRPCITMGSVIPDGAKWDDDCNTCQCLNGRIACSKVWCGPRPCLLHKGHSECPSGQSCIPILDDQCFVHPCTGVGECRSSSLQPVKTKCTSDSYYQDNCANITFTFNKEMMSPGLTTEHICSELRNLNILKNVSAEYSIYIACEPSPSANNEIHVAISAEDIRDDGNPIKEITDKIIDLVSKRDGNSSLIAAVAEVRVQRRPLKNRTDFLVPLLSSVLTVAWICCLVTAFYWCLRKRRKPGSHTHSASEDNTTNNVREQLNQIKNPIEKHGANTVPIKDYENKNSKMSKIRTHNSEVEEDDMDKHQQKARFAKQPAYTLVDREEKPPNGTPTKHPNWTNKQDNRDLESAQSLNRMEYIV

Tests used:
[1] = molecular target: Human JAG1/Jagged1 His Tag (Sino Biological Cat #: 11648-H08H) (human) (UniProt P78504); test: ELISA on recombinant purified Notch ligands
[2] = molecular target: Recombinant Human Jagged 1 Fc chimera (R&D Systems Cat #: 1277-M-050) (human) (UniProt P78504); test: ELISA on recombinant purified Notch ligands
[3] = molecular target: Human JAG1/Jagged1 His Tag (Sino Biological Cat #: 11648-H08H) (human) (UniProt P78504); test: ELISA, 1 ug/ml ligand coated on the plate, 15D11.1 titrated, detection with peroxidase anti-human Fab, absorbance 450 nm
[4] = molecular target: Recombinant Human Jagged 1 Fc chimera (R&D Systems Cat #: 1277-M-050) (human) (UniProt P78504); test: as above
[5] = molecular target: recombinant human Jagged1 extracellular domain (Met 1-Ser 1046), fused with a polyhistidine tag at the C-terminus (Creative Biomart Cat #JAG1-3226H) (human) (UniProt P78504); test: Octet (biolayer interferometry), 15D11.1 captured on anti-human Fc biosensors, soluble hJagged1 ECD-His as analyte (50, 15.3, 5.1, 1.7 and 0.56 nM per paragraph 358)

Measured: binding

B1: anti-hJagged1 mAb 15D11.1 (antibody, V domains shown)
VH: QVTLKESGPVLVKPTETLTLTCTVSGFSLSNAEMGVSWIRQPPGKALEWLAHLFSNDEKSYSTSLKSRLTISKDTSKSQVVLTMTDLDPVDTATYYCARSFNWNYDFDYWGQGTLVTVSS
VL: QSALTQPASVSGSPGQSITISCTGTSSAVGGHNFVSWYQQYPGKAPKLMIYEVSNRPSGVSTRFSGSKSGNTASLTISGLQAEDEADYYCSSYTSSSTWVFGGGTRLTVL
notes: Fully human monoclonal antibody from XenoMouse (XMG2-KL / XMG4-KL) hybridomas; also called iPS:480499; anti-Jag-1 15D11.1
binds: all assays above
